Measurements published in article PMC3191176.
Construct, isoform or probe ends are uncertain for at least one entry. Where cells or extracts were used, other partners may take part. For part of these data: No signal at the amounts used counts as a negative. For part of these data: A weaker result is weaker than the reference pair of the same experiment.

Chains of the proteins cited; added tags and fusions are not shown. Chains listed by the source or under a name are the forms on record and can include a tag or linker.
UniProt Q9NQB0, whole entry: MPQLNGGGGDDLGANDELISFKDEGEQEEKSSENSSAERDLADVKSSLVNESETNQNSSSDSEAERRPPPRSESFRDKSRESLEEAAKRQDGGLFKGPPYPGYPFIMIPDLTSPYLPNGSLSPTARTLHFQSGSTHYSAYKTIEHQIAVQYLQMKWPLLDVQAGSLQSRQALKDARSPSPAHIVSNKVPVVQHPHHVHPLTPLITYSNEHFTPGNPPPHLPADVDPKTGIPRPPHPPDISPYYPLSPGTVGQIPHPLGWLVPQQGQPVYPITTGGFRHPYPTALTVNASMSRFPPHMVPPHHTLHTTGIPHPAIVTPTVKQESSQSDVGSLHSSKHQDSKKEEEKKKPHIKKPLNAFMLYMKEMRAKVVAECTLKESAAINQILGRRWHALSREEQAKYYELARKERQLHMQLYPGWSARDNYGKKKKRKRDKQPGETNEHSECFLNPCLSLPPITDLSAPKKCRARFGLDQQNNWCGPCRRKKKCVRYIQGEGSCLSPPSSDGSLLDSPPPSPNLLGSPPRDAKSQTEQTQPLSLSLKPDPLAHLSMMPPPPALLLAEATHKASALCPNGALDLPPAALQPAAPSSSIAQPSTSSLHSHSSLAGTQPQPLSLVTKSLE
TCF-4 (Jurkat nuclear extract) + beta-catenin (Jurkat nuclear extract), one chain, as listed by the source, chain 2 of 2: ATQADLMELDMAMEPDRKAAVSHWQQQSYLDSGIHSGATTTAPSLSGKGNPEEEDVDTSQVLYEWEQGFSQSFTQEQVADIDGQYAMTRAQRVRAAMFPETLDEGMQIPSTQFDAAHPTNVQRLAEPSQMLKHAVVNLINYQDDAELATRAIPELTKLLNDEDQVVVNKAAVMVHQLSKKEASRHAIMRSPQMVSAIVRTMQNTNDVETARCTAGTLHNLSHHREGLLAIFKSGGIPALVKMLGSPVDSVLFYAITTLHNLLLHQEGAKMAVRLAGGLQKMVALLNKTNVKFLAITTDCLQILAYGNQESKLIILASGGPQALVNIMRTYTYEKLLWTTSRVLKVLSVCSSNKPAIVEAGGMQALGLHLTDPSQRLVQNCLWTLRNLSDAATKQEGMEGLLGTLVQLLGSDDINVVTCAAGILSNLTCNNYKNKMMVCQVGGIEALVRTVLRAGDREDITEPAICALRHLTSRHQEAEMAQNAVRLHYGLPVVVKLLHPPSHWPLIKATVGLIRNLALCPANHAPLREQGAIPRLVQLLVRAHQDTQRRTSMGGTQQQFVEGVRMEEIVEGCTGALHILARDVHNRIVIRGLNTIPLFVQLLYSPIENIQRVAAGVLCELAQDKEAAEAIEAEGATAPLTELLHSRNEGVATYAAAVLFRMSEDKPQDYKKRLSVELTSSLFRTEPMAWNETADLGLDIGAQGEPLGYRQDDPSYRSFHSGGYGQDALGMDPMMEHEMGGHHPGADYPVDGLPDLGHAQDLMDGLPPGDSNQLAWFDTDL
TCF-4 (Jurkat nuclear extract) + beta-catenin (Jurkat nuclear extract), one chain, as listed by the source, chain 1 of 2: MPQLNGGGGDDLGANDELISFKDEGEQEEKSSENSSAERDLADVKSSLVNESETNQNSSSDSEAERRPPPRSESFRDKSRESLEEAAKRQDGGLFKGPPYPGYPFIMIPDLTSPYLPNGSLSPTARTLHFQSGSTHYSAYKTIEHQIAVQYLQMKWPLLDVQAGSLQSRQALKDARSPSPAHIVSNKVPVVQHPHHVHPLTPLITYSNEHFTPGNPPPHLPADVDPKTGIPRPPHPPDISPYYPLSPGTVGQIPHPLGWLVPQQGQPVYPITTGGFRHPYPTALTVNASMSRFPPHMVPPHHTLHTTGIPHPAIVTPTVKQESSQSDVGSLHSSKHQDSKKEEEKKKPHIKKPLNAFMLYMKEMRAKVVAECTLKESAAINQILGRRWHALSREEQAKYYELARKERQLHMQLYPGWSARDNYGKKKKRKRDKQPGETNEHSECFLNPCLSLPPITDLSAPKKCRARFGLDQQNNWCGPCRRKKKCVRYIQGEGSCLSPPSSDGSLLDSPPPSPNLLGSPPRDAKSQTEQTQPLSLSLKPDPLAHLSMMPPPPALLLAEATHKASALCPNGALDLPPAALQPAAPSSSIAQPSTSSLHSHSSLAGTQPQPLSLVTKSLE

What was measured:
[1] = target: TCF-4 (Jurkat nuclear extract) (human) (UniProt Q9NQB0); assay: EMSA; conditions: 10 mM Tris-HCl pH 7.5, 50 mM NaCl, 1 mM MgCl2, 0.5 mM EDTA, 0.5 mM DTT, 4% glycerol, 50 ug/ml poly(dI-dC), 8 ug nuclear extract, room temperature, 30 min, protein in an extract, label: 32P 5'-end
[2] = target: TCF-4 (antibody-identified, SW480 nuclear extract) (human) (UniProt Q9NQB0); assay: EMSA; conditions: 10 mM Tris-HCl pH 7.5, 50 mM NaCl, 1 mM MgCl2, 0.5 mM EDTA, 0.5 mM DTT, 4% glycerol, 50 ug/ml poly(dI-dC), 8 ug nuclear extract, room temperature, 30 min; protein in an extract; label: 32P 5'-end
[3] = test system: TCF-4 (Jurkat nuclear extract) + beta-catenin (Jurkat nuclear extract); assay: EMSA, antibody interference; conditions: 10 mM Tris-HCl pH 7.5, 50 mM NaCl, 1 mM MgCl2, 0.5 mM EDTA, 0.5 mM DTT, 4% glycerol, 50 ug/ml poly(dI-dC), 8 ug nuclear extract, room temperature, 30 min, protein in an extract, label: 32P 5'-end
[4] = target: TCF-4 (antibody-identified, SW480 nuclear extract) (human) (UniProt Q9NQB0); assay: EMSA, antibody interference; conditions: 10 mM Tris-HCl pH 7.5, 50 mM NaCl, 1 mM MgCl2, 0.5 mM EDTA, 0.5 mM DTT, 4% glycerol, 50 ug/ml poly(dI-dC), 8 ug nuclear extract, room temperature, 30 min, protein in an extract, label: 32P 5'-end
[5] = target: TCF-4 (antibody-identified, SW480 nuclear extract) (human) (UniProt Q9NQB0); assay: competition with a labelled probe; conditions: 10 mM Tris-HCl pH 7.5, 50 mM NaCl, 1 mM MgCl2, 0.5 mM EDTA, 0.5 mM DTT, 4% glycerol, 50 ug/ml poly(dI-dC), 8 ug nuclear extract, room temperature, 30 min, protein in an extract, label: none (competitor)
[6] = lower band, increased with anti-beta-catenin

GTGGGTGTTTGTTTGAGA (double strand) [mTBE2 (-205G allele)]
binding result ([1]; almost lost binding): binds more weakly
binding result [2]: no binding

GCGAAATCCAAACCAGCT (double strand) [mTBE1]
binding result [1]: no binding
binding result [2]: no binding

GCGAAATACAAAGCAGCT (double strand) [TBE1 (wild-type)]
binding result [1, 6]: binds
binding result ([3]; anti-beta-catenin decreased the super-complex): binds
binding result ([4]; anti-TCF-4 decreased complex, cold TBE1 200x competes): binds

AAAACATTGTGAAATACA (double strand) [nonspecific probe (NP)]
binding result ([5]; 200x cold NP against labeled TBE1): no binding
binding result ([5]; 200x cold NP against labeled TBE2): no binding

GTGGGTGTTTCTTTGAGA (double strand) [TBE2 (-205C allele)]
binding result [1, 6]: binds
binding result ([3]; anti-beta-catenin disrupted the super-complex, cold TBE2 competes): binds
binding result ([4]; anti-TCF-4 reduced complex, cold TBE2 competes): binds
